This is one part of the list.

This assay concerns the target T1, OsSMF1 (Oryza sativa, UniProt Q6ZLB0 1-436).
T1 sequence: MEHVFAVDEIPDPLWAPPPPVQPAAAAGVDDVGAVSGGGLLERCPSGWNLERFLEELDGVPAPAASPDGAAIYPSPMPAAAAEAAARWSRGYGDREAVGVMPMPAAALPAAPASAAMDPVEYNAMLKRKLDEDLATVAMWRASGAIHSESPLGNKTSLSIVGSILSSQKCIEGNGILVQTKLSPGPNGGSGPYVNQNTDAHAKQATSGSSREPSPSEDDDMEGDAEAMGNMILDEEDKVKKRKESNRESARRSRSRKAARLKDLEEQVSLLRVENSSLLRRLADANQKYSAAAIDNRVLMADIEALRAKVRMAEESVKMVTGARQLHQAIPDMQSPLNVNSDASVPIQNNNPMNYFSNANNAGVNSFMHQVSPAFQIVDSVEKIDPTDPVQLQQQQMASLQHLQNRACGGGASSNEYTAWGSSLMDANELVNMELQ
As to the kind of experiment: protein-binding microarray (RPBM); PBS, 2% BSA, 51.3 ng/ul salmon testes DNA, 50 uM zinc acetate, 200 nM TF, 25 C, 1 h; high values mean tight binding. The settings on record: protein: recombinant; tags: N-terminal polyhistidine and DsRed monomer fusion (pET32a); chain copies: 2; label: CyDye5-dUTP incorporated in the synthesized complementary strand; 3' TTTTT single-stranded linker to array surface; dsDNA, one strand shown. The method in brief:
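Transcription factors were each fused at the N-terminus to a polyhistidine tag plus DsRed and expressed in E. coli BL21-CodonPlus before Ni–NTA purification. Binding to a double-stranded custom Agilent array was carried out with 200 nM protein at 25 °C for 1 h in PBS, 2% BSA, salmon testes DNA and 50 µM zinc acetate. The binding signal is per-feature fluorescence intensity, in arbitrary units, on an Axon 4000B scanner.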
Consider “CTAGCTGTATGCCGCCTTTATAACGCGGCGAGGCAGCCAGCGGAGTCACCTAGTGCAG”, for which the binding signal was 3900 fluorescence intensity (a.u.).

As for “GGTGTGGTGATGCTACCCCAAAGTTGAAACCTCGTCAACTCGGAGTCACCTAGTGCAG”, the binding signal was 4300 fluorescence intensity (a.u.).

Consider “ACTTGGTGCACTATTATGTAGCTCAGTTTACTACTCCAGTCGGAGTCACCTAGTGCAG”, for which the binding signal is 20100 fluorescence intensity (a.u.).

As for “TATGTAACCCAGAAGCGCCACTGACTGTACTTTTCCCTTACGGAGTCACCTAGTGCAG”, the binding signal was 3540 fluorescence intensity (a.u.).

On to “TTGACCGCTTGACGCGGAGCTCCCCGCCGGCCTCCTCCCCCGGAGTCACCTAGTGCAG”, for which the binding signal was 4540 fluorescence intensity (a.u.).

On to “TGCAGCACGGGGTAGTTGGGTTGGGTCCGGACGCGGCGCGCGGAGTCACCTAGTGCAG”, for which the binding signal was 3390 fluorescence intensity (a.u.).

As to “AGCGTGCCTTCCCCACGTAGCACCCAAACGCCACGCCGACCGGAGTCACCTAGTGCAG”, the binding signal was 3460 fluorescence intensity (a.u.).

On to “CACCGGCGTGTACAGCTCCGACACGCTGACGCTGACCGGGCGGAGTCACCTAGTGCAG”, for which the binding signal was 6230 fluorescence intensity (a.u.).

Regarding “AGGGCAAGCCGTTGACGCCAGGTGGTAGGGTTGGAGGAGGCGGAGTCACCTAGTGCAG”, the binding signal was 37800 fluorescence intensity (a.u.).

Turning to “CTGGACATGCCACAACAAACTTGCCAGCTCAAACAGTGACCGGAGTCACCTAGTGCAG”, the binding signal was 3790 fluorescence intensity (a.u.).

As to “GTATCCTGGAAACATTATTCTTGTAATTTAGCACTTAGGGCGGAGTCACCTAGTGCAG”, the binding signal is 32400 fluorescence intensity (a.u.).

As for “AGCCGGTGGTCTCAACCACCTCATTTAGCCCGCTTTGCTGCGGAGTCACCTAGTGCAG”, the binding signal is 3860 fluorescence intensity (a.u.).

As to “AACCGCCGATCTCCACCGTCCACGTACCCCGGCCGACCAACGGAGTCACCTAGTGCAG”, the binding signal was 5430 fluorescence intensity (a.u.).

Consider “GTTTTGTCCGAAGCAGCGGCTGAGTCAGCGTGGGACCCACCGGAGTCACCTAGTGCAG”, for which the binding signal is 13600 fluorescence intensity (a.u.).

Turning to “TGCCGCTGTGGGCGGCCAGCATCACCGCCATCGCCGCCGGCGGAGTCACCTAGTGCAG”, the binding signal was 3230 fluorescence intensity (a.u.).

As to “AGTAATGGCTAGATGACGTCACCTAGCCGTTGTAGATATCCGGAGTCACCTAGTGCAG”, the binding signal is 7830 fluorescence intensity (a.u.).

Consider “ATTGGTTGACGCGACGCCAATGGAGTCACGAACTGAACTGCGGAGTCACCTAGTGCAG”, for which the binding signal is 3400 fluorescence intensity (a.u.).

“ACCCACACCTCGTCCCCGTCACCTCCTATATCATCGTCATCGGAGTCACCTAGTGCAG”: the binding signal is 6470 fluorescence intensity (a.u.).

On to “TCGGCGGCAGAACAGGGACGAAATGCAGCCACCGCACCAGCGGAGTCACCTAGTGCAG”, for which the binding signal is 3180 fluorescence intensity (a.u.).

For the sequence “TAGTCAAAGGAGCCACGTAGACGCCATATCAGCTAAAACGCGGAGTCACCTAGTGCAG”, the binding signal is 8470 fluorescence intensity (a.u.).

In the case of “TGTTCTTCGACAATCCAGTCATCTTACATAGAAACGGATACGGAGTCACCTAGTGCAG”, the binding signal was 3930 fluorescence intensity (a.u.).

On to “CGTTATTCCTCCACCAGGTGTATCTGACTTGGCAAACCTTCGGAGTCACCTAGTGCAG”, for which the binding signal is 5500 fluorescence intensity (a.u.).

Regarding “CTCGAGGGGCTCGGGCGTGTCGCGCGTGGCGAAGAGGCGCCGGAGTCACCTAGTGCAG”, the binding signal was 3800 fluorescence intensity (a.u.).

In the case of “TAGAGAAAGCAAAGCACATACATAGGCTAATTCTCCTTTACGGAGTCACCTAGTGCAG”, the binding signal is 39200 fluorescence intensity (a.u.).

With “CGGGAGGAGGGAGGTTGTTTCGTCTGGGGTTTGATTGGGACGGAGTCACCTAGTGCAG”, the binding signal was 3780 fluorescence intensity (a.u.).

As to “AGGAGCATTTTGTAAATTAATGCGTGTACCATCATTGTAGCGGAGTCACCTAGTGCAG”, the binding signal is 3220 fluorescence intensity (a.u.).

As to “CTTGCCCCGCGCCACGCCACGGCACGCCACGCCACCGCCCCGGAGTCACCTAGTGCAG”, the binding signal is 6220 fluorescence intensity (a.u.).

As for “TCAGTAGTGTTGTGATCGCATCATCAATTCATTATTCATCCGGAGTCACCTAGTGCAG”, the binding signal is 4200 fluorescence intensity (a.u.).

Turning to “TTTCTGCTTACAAGGTTTTCAGCATTTGAGCAATTGACCTCGGAGTCACCTAGTGCAG”, the binding signal is 3660 fluorescence intensity (a.u.).

Consider “ACCGCCAGCAGCGGCGACCTCGTCATCGATCTCGCCTCACCGGAGTCACCTAGTGCAG”, for which the binding signal was 8230 fluorescence intensity (a.u.).

As to “TATGTAGTCGTGGCCTTCATGCAGAGCATCATCTTCCTCCCGGAGTCACCTAGTGCAG”, the binding signal is 20600 fluorescence intensity (a.u.).

On to “TATTTATAGCCCATTTCCATGGCTCCCGCACCACACTCCCCGGAGTCACCTAGTGCAG”, for which the binding signal is 16600 fluorescence intensity (a.u.).

In the case of “TATCATTTGTCAAACACACCCATATCCCATTTGCCAATCACGGAGTCACCTAGTGCAG”, the binding signal was 3890 fluorescence intensity (a.u.).

Take “GCCATTATTACGGGTCCATGCCAACACATGTGTAACACAACGGAGTCACCTAGTGCAG”: the binding signal is 4200 fluorescence intensity (a.u.).

As for “TGACCTGAAGATATTTAATGTAAAATTTTATCTCTAATGACGGAGTCACCTAGTGCAG”, the binding signal is 18200 fluorescence intensity (a.u.).

Turning to “TACTACGACGGGAAGGCCGGGAGGTACGTGGGGAAGCAAGCGGAGTCACCTAGTGCAG”, the binding signal was 3410 fluorescence intensity (a.u.).

As for “GGGGCCACATCGTCAGTGAAACGGACGGGTATAGGGTTAGCGGAGTCACCTAGTGCAG”, the binding signal is 3270 fluorescence intensity (a.u.).

For “ATGCTACACGTACATCCGAAATGTCACGCCGTTGTGCATTCGGAGTCACCTAGTGCAG”, the binding signal is 4210 fluorescence intensity (a.u.).

Turning to “GAATTGATCAATGCTCATCACTGTCACTTGAGAACAGATGCGGAGTCACCTAGTGCAG”, the binding signal was 3580 fluorescence intensity (a.u.).

“ATCAGCTAAGGCCAATCGGTGGATTACACACATTGGGTTCCGGAGTCACCTAGTGCAG”: the binding signal is 47600 fluorescence intensity (a.u.).

As for “TCATGGCAGCCGACGTCTCCATCCCCACGCCGCCTCTCTGCGGAGTCACCTAGTGCAG”, the binding signal was 3500 fluorescence intensity (a.u.).

“TGCCCACGCCGCGCCGCCGCCTCCTCCTCCTCCTCCTCCTCGGAGTCACCTAGTGCAG”: the binding signal is 46900 fluorescence intensity (a.u.).

For the origin of these results see paper PMC7819943, “Rice protein-binding microarrays: a tool to detect cis-acting elements near promoter regions in rice”.
